Measurements from publication PMC9127447.
Residue numbers refer to the chain shown, from its start. In names and notes the source's numbering stands. No constants are given. Whether binding was seen depends on the method and setting. Some binding calls cover weakened binding; strength is not graded here. Sequences can lack the tags named with a protein. Values belong to the binder of their own block, whether it stands above or below them.

Assays:
[1] = biological target: His-tagged rat dynamin 2-WT (rat) (UniProt P39052); test: negative-stain transmission electron microscopy; dynamin 2 alone, without liposomes, under GDP-Pi conditions; ring-shaped polymers; both purified
[2] = biological target: His-tagged rat dynamin 2-WT (rat) (UniProt P39052); test: negative-stain transmission electron microscopy; 1.5 uM dynamin with 1 uM actin filaments in F-buffer with 50 mM KCl (low ionic strength), 4 C, 16 h; both purified
[3] = biological target: His-tagged rat dynamin 2-WT (rat) (UniProt P39052); test: atomic force microscopy; mixture of dynamin 2 and actin filaments in F-buffer with 50 mM KCl, spun onto a glass stage (6,000 x g, 20 min), fixed with 0.01% glutaraldehyde, imaged in F-buffer at room temperature; both purified
[4] = biological target: His-tagged rat dynamin 2-K562E (rat) (UniProt P39052); test: negative-stain transmission electron microscopy; dynamin 2 alone, without liposomes, under GDP-Pi conditions; ring-shaped polymers; both purified
[5] = biological target: His-tagged rat dynamin 2-K562E (rat) (UniProt P39052); test: negative-stain transmission electron microscopy; 1.5 uM dynamin with 1 uM actin filaments in F-buffer with 50 mM KCl (low ionic strength), 4 C, 16 h; both purified

binding [1]: binds | binding [2]: binds | binding [3]: binds
B1: His-tagged rat dynamin 2-WT (enzyme, UniProt P39052 1-870)
chain: MGNRGMEELIPLVNKLQDAFSSIGQSCHLDLPQIAVVGGQSAGKSSVLENFVGRDFLPRGSGIVTRRPLILQLIFSKTEYAEFLHCKSKKFTDFDEVRQEIEAETDRVTGTNKGISPVPINLRVYSPHVLNLTLIDLPGITKVPVGDQPPDIEYQIKDMILQFISRESSLILAVTPANMDLANSDALKLAKEVDPQGLRTIGVITKLDLMDEGTDARDVLENKLLPLRRGYIGVVNRSQKDIEGRKDIRAALAAERKFFLSHPAYRHMADRMGTPHLQKTLNQQLTNHIRESLPTLRSKLQSQLLSLEKEVEEYKNFRPDDPTRKTKALLQMVQQFGVDFEKRIEGSGDQVDTLELSGGARINRIFHERFPFELVKMEFDEKDLRREISYAIKNIHGVRTGLFTPDLAFEAIVKKQVVKLKEPCLKCVDLVIQELISTVRQCTSKLSSYPRLREETERIVTTYIREREGRTKDQILLLIDIEQSYINTNHEDFIGFANAQQRSTQLNKKRAIPNQGEILVIRRGWLTINNISLMKGGSKEYWFVLTAESLSWYKDEEEKEKKYMLPLDNLKIRDVEKGFMSNKHVFAIFNTEQRNVYKDLRQIELACDSQEDVDSWKASFLRAGVYPEKDQAENEDGAQENTFSMDPQLERQVETIRNLVDSYVAIINKSIRDLMPKTIMHLMINNTKAFIHHELLAYLYSSADQSSLMEESAEQAQRRDDMLRMYHALKEALNIIGDISTSTVSTPVPPPVDDTWLQNTSSHSPTPQRRPVSSVHPPGRPPAVRGPTPGPPLIPMPVGATSSFSAPPIPSRPGPQNVFANNDPFSAPPQIPSRPARIPPGIPPGVPSRRAPAAPSRPTIIRPAEPSLLD

binding [4]: binds | binding [5]: binds
B2: His-tagged rat dynamin 2-K562E (enzyme, UniProt P39052 1-870)
chain: B1 chain with K562E
